Several values for one entry are separate records, joined by “and”; a condition that tells them apart may be missing. Equal entries are not always repeated. This is one part of the list. The main result of the screen is listed elsewhere. These columns were measured beside it and carry no call. The list favours compounds with an active or inconclusive main result. Words in brackets tell the shape of the fitted curve; partial curves, single points and poor fits give uncertain potencies.
Assay: qHTS Assay for Lipid Storage Modulators in Drosophila S3 Cells;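 for cell number change: cells counted by Cell Tracker Red CMTPX staining in the red channel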
Details: BODIPY lipid droplet fluorescence, 18-24 h; for cell number change: measured here: cell count max response, cells fed with added oleic acid
In short: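 Laser-scanning cytometry quantifies lipid droplet accumulation (500–530 nm total intensity; droplet/cell object ratio) in oleic acid-fed (400 uM added) Drosophila S3 cells treated with a concentration series. 20 uM Triacsin C defined 100% inhibition.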

[1] = measured here: cell number channel AC50, cells fed with added oleic acid
[2] = measured here: lipid fluorescence (Fed channel) AC50, cells fed with added oleic acid

| Structure (SMILES) | cell number change | AC50 [1] | AC50 [2] |
| --- | --- | --- | --- |
| CCOC(=O)C1=C(O)C(=O)N(c2ccc(S(N)(=O)=O)cc2)C1c1cccc([N+](=O)[O-])c1 (stereo not given) | -35.9% | 14.6 µM [falling, partial curve, poor fit] | 4.61 µM [falling, partial curve] |
| CC(C)(Oc1ccc(Cl)cc1)C(=O)Nc1ccncc1 | -10.7% | – | – |
| O=C(CCNc1n[nH]c(=O)[nH]c1=O)N/N=C\c1ccc(Br)cc1 | – | – | 29.1 µM [rising, single point] |
| Cc1noc(C)c1CSc1nnc2scc(-c3ccccc3)n12 | -8.68% | – | 2.06 µM [rising, single point] |
| Cc1cc(Br)c(OCc2ccc(C(=O)N/N=C3\CC(=O)CC(C)(C)C3)cc2)c(Br)c1 | – | – | 0.0231 µM [falling, full curve, poor fit] |
| CC(C)n1ncc2c(C(=O)N3CCN(c4ccc(F)cc4)CC3)cc(-c3ccccc3)nc21 | -1.42% | 2.06 µM [rising, single point] | 0.411 µM [rising, partial curve] |
| Cc1ccc(CN2CCN(CC(=O)NCCCN3CCN(c4ccc(F)cc4)CC3)C2=O)cc1 | -12.6% | – | 29.1 µM [falling, single point] |
| CCOc1cc(NC(=O)c2cccs2)c(OCC)cc1NC(=O)CCC(=O)NCC1CCCO1 (stereo not given) | – | – | 0.00461 µM [falling, full curve, poor fit] |
| Cc1ccc(-n2ncc3c(=O)[nH]c(SCC(=O)N4CCCCC4)nc32)cc1 | – | 0.231 µM [falling, full curve, poor fit] | 1.3 µM [falling, full curve] |
| O=C(CSc1nnc(NC(=O)C2CCC2)s1)Nc1ccccc1 | 40.8% | – | – |
| Cc1ccc(Nc2nc(CSc3nnc(-c4ccccc4)n3C)cs2)cc1 | 30.4% | 23.1 µM [rising, single point] | 16.4 µM [rising, partial curve, poor fit] |
| CS(=O)(=O)N(CCc1ccccc1)CC(=O)N1CCCCC1 | -21.7% | 0.461 µM [rising, single point] | 4.11 µM [falling, full curve] |
| C/[N+]([O-])=C\c1ccc([N+](=O)[O-])o1 | – | – | 1.64 µM [falling, partial curve, poor fit] |
| CC(=O)Nc1cccc(C(=O)NC2CCCc3c2cnn3-c2ccccc2F)c1 (stereo not given) | 0.763% | – | 5.8 µM [falling, single point] |
| COc1cccc(OC)c1C(=O)Nc1ccc(CN2CCCCC2)cc1 | 11.3% | – | 29.1 µM [falling, single point] |
| CCOC(=O)c1ccc(NC(=O)c2sc3nc4n(c(=O)c3c2C)CCC4)cc1 | -3.62% | 0.0651 µM [rising, full curve, poor fit] | – |
| Brc1cccc(CN2CCCCCC2)c1 | 7.72% | – | 29.1 µM [rising, single point] |
| [N-]=[N+]=CC(=O)CCCN1C(=O)c2ccccc2C1=O | 22.4% | 0.116 µM [rising, full curve, poor fit] | – |
| COc1ccc(CC(=O)Nc2nc(C)cs2)cc1S(=O)(=O)N1CCOCC1 | – | 0.58 µM [rising, single point] | 14.6 µM [falling, partial curve, poor fit] |

Record cards (already shown). Order of values: cell number change | AC50 [1] | AC50 [2]
Cc1ccc(CN2CCN(CC(=O)NCCCN3CCN(c4ccc(F)cc4)CC3)C2=O)cc1 in the list: -12.6% | – | 29.1 µM [falling, single point]
COc1cccc(OC)c1C(=O)Nc1ccc(CN2CCCCC2)cc1 in the list: 11.3% | – | 29.1 µM [falling, single point]

The list goes on:

| Structure (SMILES) | cell number change | AC50 [1] | AC50 [2] |
| --- | --- | --- | --- |
| COc1ccc(NC(=O)c2c(Cl)nc3ccccn23)cc1 | – | 0.092 µM [rising, single point] | – |
| CCc1ccc2c(c1)c(N=NC1=NC(=O)CS1)c(O)n2C | -17.4% | – | 7.31 µM [rising, partial curve] |
| CC(C)(C)C1CCC(OCC(O)CN2CCN(Cc3ccccc3)CC2)CC1 (stereo not given) | -25.5% | – | 11.6 µM [falling, partial curve, poor fit] |
| CCN1C(=NCCc2c[nH]c3ccccc23)N[C@@H](c2ccccc2)C(C(=O)OC)=C1C | -12.9% and 8.14% | 0.326 µM [rising, full curve, poor fit] | – |
| O=C(NC(=O)c1ccccc1)Nc1ccc(Cl)cn1 | -33.7% | 29.1 µM [falling, single point] | – |
| O=C(COc1ccc([N+](=O)[O-])cc1)NN=C1CCCC1 | 25.3% | – | 29.1 µM [falling, single point] |
| COCCCN1C(=O)C(=O)/C(=C(/O)c2ccc3c(c2)CC(C)O3)C1c1cccnc1 (stereo not given) | -9.76% | – | – |
| CCN1C(=O)[C@H]2[C@@H](c3ccc(-c4ccc(C(C)=O)cc4)c(OC)c3)N[C@@](Cc3ccccc3)(C(=O)OC)[C@H]2C1=O | -35.5% | 10.3 µM [falling, partial curve, poor fit] | – |
| N#Cc1nc(Cc2cccc3ccccc23)oc1N1CCC(C(N)=O)CC1 | -14.2% | 6.51 µM [falling, single point] | – |
| NC(=O)CN1C(=O)/C(=c2\sc3nc(=O)c(Cc4ccccc4)nn3c2=O)c2ccccc21 | 13.2% | – | 0.92 µM [falling, full curve] |
| COc1cccc(N2CCN(c3ccc4nnc(CCC(=O)N5CCC(C)CC5)n4n3)CC2)c1 | 32.1% | 18.4 µM [rising, single point] | 2.06 µM [falling, partial curve] |
| COc1ccc(C(=O)Nc2nc(CC(=O)NCc3ccc(F)cc3)cs2)cc1 | -50% | 0.82 µM [falling, full curve, poor fit] | 20.6 µM [falling, partial curve, poor fit] |
| CCN(c1ccccc1)S(=O)(=O)c1cc(C(=O)NCc2ccccn2)ccc1C | 16.5% | – | 3.26 µM [rising, partial curve] |
| Cn1cccc1-c1cc(C(=O)N/N=C/c2cc(Br)ccc2O)[nH]n1 | 10.4% | – | – |
| COc1ccc(CN2CCN(Cc3csc(C(C)=O)c3)CC2CCO)c(C)c1C (stereo not given) | -2.74% | – | 29.1 µM [rising, single point] |
| CCCCn1c(N)c(N(CCOC)C(=O)c2oc3ccc(OCC)cc3c2C)c(=O)[nH]c1=O | 8.43% | – | 18.4 µM [rising, single point] |
| CCOc1ccc2oc(-c3ccccc3)c(C(N)=O)c2c1 | -0.874% | – | 0.0116 µM [rising, full curve, poor fit] |
| CCN(CC)S(=O)(=O)c1ccc(/C=C/C(=O)OCC#N)cc1 | 20.7% | – | 0.651 µM [falling, full curve] |
| Cc1ccccc1C(=O)NNC(=O)CSc1nnc(C)n1-c1ccccc1 | -19.6% | – | 0.82 µM [falling, full curve, poor fit] |

| Structure (SMILES) | cell number change | AC50 [1] | AC50 [2] |
| --- | --- | --- | --- |
| CCCCC(=O)Nc1cccc(C(=O)Nc2ccccc2C(=O)O)c1 | 8.35% | – | 0.92 µM [falling, full curve] |
| CCCCCCn1c(CN2CCN(Cc3ccccc3)CC2)nc2c1c(=O)n(C)c(=O)n2C | – | 3.26 µM [rising, partial curve] | – |
| CCOC(=O)c1ccc(N2C(=O)C3C(/C=C/c4ccccc4)OC4(C(=O)c5ccccc5C4=O)C3C2=O)cc1 (stereo not given) | 11.6% | – | 8.2 µM [rising, partial curve, poor fit] |
| C=CCn1c(SCC)nc(O)cc1=O | -26.4% | 0.411 µM [falling, partial curve, poor fit] | 29.1 µM [falling, single point] |
| CCN1CCN(c2oc(/C=C/c3ccccc3)nc2C#N)CC1 | – | – | 5.8 µM [rising, single point] |
| Cc1ccc(S(=O)(=O)N/N=C/c2ccc(OS(=O)(=O)c3ccc(C)c([N+](=O)[O-])c3)cc2)cc1 | 39.7% | 4.11 µM [rising, single point] | – |
| CSCCC(NS(=O)(=O)c1ccc2c(c1)OCCO2)C(=O)N(C)Cc1ccc(C)cc1 (stereo not given) | -44.9% | 1.84 µM [falling, full curve] | 1.64 µM [falling, full curve] |
| CC(=O)Nc1c(-c2ccc(F)cc2)nc2ccccn12 | 6.02% | 0.103 µM [falling, single point] | 0.146 µM [falling, single point] |
| COc1ccc(C)cc1S(=O)(=O)N(C)CC(=O)NC1CC1 | 1.4% | – | 29.1 µM [rising, single point] |
| COc1ccc(CS(=O)c2nc(C)cc(C)c2S(C)(=O)=O)cc1 (stereo not given) | 73.3% | 5.8 µM [falling, single point] | – |
| COc1ccc(/C=C2/C(=O)OCc3cc(OC)c(OC)cc32)cc1 | 0.497% | – | 9.2 µM [rising, partial curve] |
| CC(C)OC(=O)CSc1nnc(-c2ccc(Cl)cc2)n1N | -50.5% | 29.1 µM [falling, single point] | – |
| S=C(NCc1ccccc1)N1CCn2cccc2C1c1cccnc1 (stereo not given) | 6.4% | – | 0.164 µM [rising, full curve, poor fit] |
| c1ccc2c(c1)[nH]c1ccncc12 | 18.3% | – | 8.2 µM [rising, partial curve, poor fit] |
| COc1ccc(N2CCN(CCNC(=O)C3CCN(S(=O)(=O)c4cccs4)CC3)CC2)cc1 | – | – | 16.4 µM [rising, partial curve] |
| COc1cc(C(C)=O)ccc1OCC(O)Cn1nc(C)c(Br)c1C (stereo not given) | 16.5% | – | 29.1 µM [falling, single point] |
| O=c1cc[nH]c2cc(Cl)ccc12 | 5.53% | – | 18.4 µM [rising, single point] |
| CC1CCN(C(=O)COC(=O)COc2ccccc2C#N)CC1 | -8.2% | – | 6.51 µM [falling, single point] |
| O=C(NCc1cccc(Cl)c1)c1ccc2c(c1)OCCO2 | -19.1% | – | – |

Entries listed so far that contain a furan ring, fused or not, in the order listed:

| Structure (SMILES) | cell number change | AC50 [1] | AC50 [2] |
| --- | --- | --- | --- |
| C/[N+]([O-])=C\c1ccc([N+](=O)[O-])o1 | – | – | 1.64 µM [falling, partial curve, poor fit] |
| CCCCn1c(N)c(N(CCOC)C(=O)c2oc3ccc(OCC)cc3c2C)c(=O)[nH]c1=O | 8.43% | – | 18.4 µM [rising, single point] |
| CCOc1ccc2oc(-c3ccccc3)c(C(N)=O)c2c1 | -0.874% | – | 0.0116 µM [rising, full curve, poor fit] |

Source: PubChem BioAssay AID2685 (National Center for Advancing Translational Sciences (NCATS), 2010)
